Results reported in patent US9212132B2, “(Meth)acrylic acid ester, activation energy ray curing composition, and inkjet recording ink” (Ricoh Company Ltd., priority 2011, dated 2015).

Assay: Evaluation of odor (discomfort when smelling each ink)
Set-up: key: A: No smell was sensed.; B: Slight smell was sensed but it did not give discomfort.; C: Distinct odor gave discomfort.; Distinct odor gave significant discomfort
Conditions: ink: 950 mg monomer + 50 mg IRGACURE 907

Compound	Odor
C=CC(=O)OCCOC(=O)N(CC)CC [B-1]	B
C=C(C)C(=O)OCCOC(=O)N(CC)CC [B-2]	A
C=CC(=O)OCCOc1ccccc1 [Commercial product (a), reference compound]	D
C=C(C)C(=O)OCCOc1ccccc1 [Commercial product (b), reference compound]	D
C=CC(=O)OCCOC(=O)NCCCC [Commercial product (c), reference compound]	C
C=CC(=O)OCCN1CCOCC1 [Commercial product (d), reference compound]	C
C=C(C)C(=O)OCCN1CCOCC1 [Commercial product (e), reference compound]	C
C=CC(=O)OCCOC(=O)N1CCOCC1 [D-1]	B
C=C(C)C(=O)OCCOC(=O)N1CCOCC1 [D-2]	A
C=CC(=O)OCCOC(=O)N1CCCCC1 [E-1]	B
C=C(C)C(=O)OCCOC(=O)N1CCCCC1 [E-2]	A
C=CC(=O)OC1CCN(C(=O)OCC)CC1 [F-1]	B
C=C(C)C(=O)OC1CCN(C(=O)OCC)CC1 [F-2]	A
C=CC(=O)OCC(COC(=O)N(CC)CC)OC(=O)C=C (stereo not shown) [G-3]	A
C=C(C)C(=O)OCC(COC(=O)N(CC)CC)OC(=O)C(=C)C (stereo not shown) [G-4]	A
C=CC(=O)OCC(CC)(COC(=O)C=C)COC(=O)N(CC)CC [J-3]	A
C=C(C)C(=O)OCC(CC)(COC(=O)C(=C)C)COC(=O)N(CC)CC [J-4]	A
C=CC(=O)OCCSCC [Ref. Syn. Ex. 1, 2-acryloxy ethylethyl sulfide, reference compound]	D
C=C(C)C(=O)OCCSCC [Ref. Syn. Ex. 2, 2-methacryloxyethylethyl sulfide, reference compound]	D
